Our source for the binding signal (fold lower affinity than native Fur), binding result and Kd values is publication PMC7515728, “YdiV regulates Escherichia coli ferric uptake by manipulating the DNA-binding ability of Fur in a SlyD-dependent manner” (Nucleic Acids Research, 2020).

Changes are numbered by the printed parent chain. For at least one entry, the source does not settle the construct or the ends of the probe. For part of these data: Negatives hold for the conditions tested. For part of these data: Where a protein sequence is shown, tags need not be part of it. For part of these data: A weaker result is weaker than the reference pair of the same experiment. For part of these data: At least one verdict was read from the data and is not stated in words by the source. For part of these data: The direction of at least one scale is not stated here.

The target of data set [1] is T1, FurYdiV (UniProt P0A9A9).
T1 sequence (looked up, limits assumed): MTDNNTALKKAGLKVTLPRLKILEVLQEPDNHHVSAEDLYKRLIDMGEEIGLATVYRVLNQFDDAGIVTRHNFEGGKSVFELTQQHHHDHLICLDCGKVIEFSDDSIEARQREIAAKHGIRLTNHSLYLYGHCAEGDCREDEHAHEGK
As to the kind of experiment: FP. Conditions: 150 uM MnCl2; FP: 10 mM Tris-HCl pH 7.5, 75 mM NaCl, +/-150 uM MnCl2 (100 uM in Fig 4E), 1 nM DNA, 37 C 15 min; recombinant protein; label: FAM.

The target of the next data set is Fur P18ASlyD (UniProt P0A9A9). The experiment in a line: FP. Conditions: 100 uM MnCl2; FP: 10 mM Tris-HCl pH 7.5, 75 mM NaCl, +/-150 uM MnCl2 (100 uM in Fig 4E), 1 nM DNA, 37 C 15 min; recombinant protein; label: FAM.
A further data set concerns the target Fur P18A (UniProt P0A9A9). The experiment in a line: FP. Conditions: 100 uM MnCl2; FP: 10 mM Tris-HCl pH 7.5, 75 mM NaCl, +/-150 uM MnCl2 (100 uM in Fig 4E), 1 nM DNA, 37 C 15 min; recombinant protein; label: FAM.
In another data set the target is T2, Zn1FurYdiV (UniProt P0A9A9).
T2 sequence (looked up, limits assumed): T1 sequence (looked up, limits assumed)
The experiment in a line: FP. Conditions: EDTA-treated Fur, no Mn2+ added; FP: 10 mM Tris-HCl pH 7.5, 75 mM NaCl, +/-150 uM MnCl2 (100 uM in Fig 4E), 1 nM DNA, 37 C 15 min; recombinant protein; label: FAM.

Another data set addresses Fur P18AYdiV (UniProt P0A9A9). The experiment in a line: FP. Conditions: 100 uM MnCl2; FP: 10 mM Tris-HCl pH 7.5, 75 mM NaCl, +/-150 uM MnCl2 (100 uM in Fig 4E), 1 nM DNA, 37 C 15 min; recombinant protein; label: FAM.
Data set [2] deals with T1, FurYdiV. The experiment in a line: EMSA. Conditions: 100 uM MnCl2; EMSA: 10 mM Tris-HCl pH 7.5, 1 mM MgCl2, 40 mM KCl, 0.1 mg/ml BSA, 5% glycerol, +/-100 uM MnCl2, 25 nM DNA, 37 C 15 min; recombinant protein; label: FAM. (In general: A gel shift assay detects complexes by their altered migration in electrophoresis.)
The next data set concerns the target T3, FurYdiV,SlyD (UniProt P0A9A9).
T3 sequence (looked up, limits assumed): T1 sequence (looked up, limits assumed)
As to the kind of experiment: EMSA. Conditions: 100 uM MnCl2, 30 uM protein; EMSA: 10 mM Tris-HCl pH 7.5, 1 mM MgCl2, 40 mM KCl, 0.1 mg/ml BSA, 5% glycerol, +/-100 uM MnCl2, 25 nM DNA, 37 C 15 min; recombinant protein; label: FAM.

The next data set concerns the target T4, FurSlyD (UniProt P0A9A9).
T4 sequence (looked up, limits assumed): T1 sequence (looked up, limits assumed)
As to the kind of experiment: EMSA. Conditions: 100 uM MnCl2, 30 uM protein; EMSA: 10 mM Tris-HCl pH 7.5, 1 mM MgCl2, 40 mM KCl, 0.1 mg/ml BSA, 5% glycerol, +/-100 uM MnCl2, 25 nM DNA, 37 C 15 min; recombinant protein; label: FAM.

The target in another data set is T5, Zn1Fur (UniProt P0A9A9).
T5 sequence (looked up, limits assumed): T1 sequence (looked up, limits assumed)
The experiment in a line: EMSA. Conditions: no Mn2+ added; EMSA: 10 mM Tris-HCl pH 7.5, 1 mM MgCl2, 40 mM KCl, 0.1 mg/ml BSA, 5% glycerol, +/-100 uM MnCl2, 25 nM DNA, 37 C 15 min; recombinant protein; label: FAM.

Another data set deals with T6, ΔydiV FurSlyD (UniProt P0A9A9).
T6 sequence (looked up, limits assumed): T1 sequence (looked up, limits assumed)
As to the kind of experiment: EMSA. Conditions: 100 uM MnCl2, 30 uM protein; EMSA: 10 mM Tris-HCl pH 7.5, 1 mM MgCl2, 40 mM KCl, 0.1 mg/ml BSA, 5% glycerol, +/-100 uM MnCl2, 25 nM DNA, 37 C 15 min; recombinant protein; label: FAM.

The next data set addresses T7, Fur P29ASlyD (UniProt P0A9A9).
T7 sequence (looked up, limits assumed): T1 sequence (looked up, limits assumed) with P29A
The experiment in a line: EMSA. Conditions: 100 uM MnCl2, 30 uM protein; EMSA: 10 mM Tris-HCl pH 7.5, 1 mM MgCl2, 40 mM KCl, 0.1 mg/ml BSA, 5% glycerol, +/-100 uM MnCl2, 25 nM DNA, 37 C 15 min; recombinant protein; label: FAM.

Another data set deals with T8, Fur P29AYdiV (UniProt P0A9A9).
T8 sequence (looked up, limits assumed): T1 sequence (looked up, limits assumed) with P29A
The experiment in a line: EMSA. Conditions: 100 uM MnCl2, 30 uM protein; EMSA: 10 mM Tris-HCl pH 7.5, 1 mM MgCl2, 40 mM KCl, 0.1 mg/ml BSA, 5% glycerol, +/-100 uM MnCl2, 25 nM DNA, 37 C 15 min; recombinant protein; label: FAM.

A word on the Kd: it is the equilibrium constant for the complex coming apart. In the case of “GATAATGATAATGATAATGATAATGATAATGA (double strand) [Fur box DNA]”, the binding signal (fold lower affinity than native Fur) with FurYdiV [1] was determined as 300. The binding result is “binds more weakly” in the data set with Fur P18ASlyD; “binds more weakly” in the data set with Fur P18A; “binds more weakly” with Fur P18AYdiV; “no binding” in the data set with FurYdiV [2]; “no binding” with FurYdiV,SlyD; “no binding” with FurSlyD. For the same sequence, the binding result with Zn1Fur is reported as “binds”; in the data set with ΔydiV FurSlyD, “no binding”; with Fur P29ASlyD, “no binding”; with Fur P29AYdiV, “no binding”. The Kd in the data set with Zn1FurYdiV was determined as 146 µM.
